In paper PMC11769810 one finds binding data, which are given here for one substance.

For the test, the target named is T1, HA-SREBP2 (human) (UniProt Q12772).
T1 sequence: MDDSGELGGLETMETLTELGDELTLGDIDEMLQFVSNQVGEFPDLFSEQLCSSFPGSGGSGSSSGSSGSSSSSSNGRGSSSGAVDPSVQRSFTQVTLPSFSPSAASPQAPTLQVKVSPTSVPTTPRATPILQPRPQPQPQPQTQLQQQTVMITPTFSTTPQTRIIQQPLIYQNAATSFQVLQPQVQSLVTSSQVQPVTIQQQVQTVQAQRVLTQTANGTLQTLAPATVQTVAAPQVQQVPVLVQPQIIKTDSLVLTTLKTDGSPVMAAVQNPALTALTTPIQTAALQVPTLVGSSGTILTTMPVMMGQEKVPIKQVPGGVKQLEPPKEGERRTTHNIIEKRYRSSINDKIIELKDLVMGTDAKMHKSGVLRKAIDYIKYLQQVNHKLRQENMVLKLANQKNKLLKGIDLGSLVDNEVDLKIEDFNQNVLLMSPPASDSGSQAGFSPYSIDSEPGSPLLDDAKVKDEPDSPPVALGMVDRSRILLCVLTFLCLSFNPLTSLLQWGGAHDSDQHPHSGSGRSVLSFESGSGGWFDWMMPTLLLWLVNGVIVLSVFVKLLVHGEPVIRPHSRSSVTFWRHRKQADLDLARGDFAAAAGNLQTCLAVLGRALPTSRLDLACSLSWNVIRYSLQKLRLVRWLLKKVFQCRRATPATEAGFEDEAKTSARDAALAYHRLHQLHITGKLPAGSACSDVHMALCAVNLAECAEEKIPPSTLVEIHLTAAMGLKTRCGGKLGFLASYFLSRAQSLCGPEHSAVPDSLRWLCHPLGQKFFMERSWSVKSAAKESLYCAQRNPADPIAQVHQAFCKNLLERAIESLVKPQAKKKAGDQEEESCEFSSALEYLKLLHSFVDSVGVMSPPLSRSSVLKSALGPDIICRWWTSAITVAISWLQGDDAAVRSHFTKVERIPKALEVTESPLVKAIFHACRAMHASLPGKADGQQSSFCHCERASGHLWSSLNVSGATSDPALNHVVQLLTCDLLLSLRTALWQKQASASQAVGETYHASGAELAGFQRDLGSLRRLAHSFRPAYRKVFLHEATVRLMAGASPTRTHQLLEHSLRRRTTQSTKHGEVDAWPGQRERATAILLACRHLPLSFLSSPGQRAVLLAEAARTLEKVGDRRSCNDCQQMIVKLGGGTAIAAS
Kind of test: co-IP; HepG2 cells co-transfected, lysed 24-48 h after transfection in 50 mM Tris-HCl pH 8.0, 150 mM NaCl, 1% NP-40 with protease inhibitors; lysates incubated overnight with anti-FLAG M2 or anti-HA affinity gel; immunoblot. In general terms: A western blot detects proteins with antibodies after separation by electrophoresis.

These are yes or no findings as the source states them, for the method shown. Binding seen in cells or lysates may run through a third protein. A result given as binding can be weak or reduced; the word gives no strength. Sequences can lack the tags named with a protein.

Turning to Flag-preCore (hepatitis B virus), the binding result was “binds”.
